In PMC3314957:
No constants are given. Whether binding was seen depends on the method and setting. Binding seen in cells or lysates may run through a third protein. Some results given as binding are weak or reduced against the parent protein; the word gives no strength. For some of these results: Where a sequence is shown, tags or fusion partners need not be part of it.

Amino acid sequences for entries named in this document (tags omitted).
UniProt Q99418: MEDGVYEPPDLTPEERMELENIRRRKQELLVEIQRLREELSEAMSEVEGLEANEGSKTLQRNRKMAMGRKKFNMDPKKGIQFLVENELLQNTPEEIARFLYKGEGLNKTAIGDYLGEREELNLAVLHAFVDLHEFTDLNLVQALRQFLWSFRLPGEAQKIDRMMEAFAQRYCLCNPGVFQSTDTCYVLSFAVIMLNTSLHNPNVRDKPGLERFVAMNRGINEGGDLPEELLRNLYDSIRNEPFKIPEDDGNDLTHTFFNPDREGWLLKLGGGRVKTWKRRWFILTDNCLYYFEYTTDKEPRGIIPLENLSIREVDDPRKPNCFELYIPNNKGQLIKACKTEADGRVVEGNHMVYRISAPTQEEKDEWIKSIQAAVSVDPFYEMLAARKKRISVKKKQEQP
UniProt P84077: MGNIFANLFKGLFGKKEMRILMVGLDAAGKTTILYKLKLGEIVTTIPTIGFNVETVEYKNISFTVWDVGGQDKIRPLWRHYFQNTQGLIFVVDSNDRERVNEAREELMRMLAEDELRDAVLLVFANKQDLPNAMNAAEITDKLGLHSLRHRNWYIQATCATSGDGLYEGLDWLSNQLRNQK
UniProt Q007T5: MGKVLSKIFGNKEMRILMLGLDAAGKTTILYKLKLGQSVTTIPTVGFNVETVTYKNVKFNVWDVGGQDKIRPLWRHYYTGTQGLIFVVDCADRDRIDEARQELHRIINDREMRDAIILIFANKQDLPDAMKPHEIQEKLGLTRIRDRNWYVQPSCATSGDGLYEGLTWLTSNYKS
UniProt Q007T2: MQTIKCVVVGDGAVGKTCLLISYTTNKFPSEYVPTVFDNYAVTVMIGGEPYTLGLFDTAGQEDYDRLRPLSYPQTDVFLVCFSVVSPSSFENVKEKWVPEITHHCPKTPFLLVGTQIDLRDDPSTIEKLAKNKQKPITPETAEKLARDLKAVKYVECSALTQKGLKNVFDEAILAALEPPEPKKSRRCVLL

T1: Salmonella guanine nucleotide exchange factor (GEF) SopE (Salmonella enterica serovar Typhimurium) (UniProt O52623)
T1 sequence: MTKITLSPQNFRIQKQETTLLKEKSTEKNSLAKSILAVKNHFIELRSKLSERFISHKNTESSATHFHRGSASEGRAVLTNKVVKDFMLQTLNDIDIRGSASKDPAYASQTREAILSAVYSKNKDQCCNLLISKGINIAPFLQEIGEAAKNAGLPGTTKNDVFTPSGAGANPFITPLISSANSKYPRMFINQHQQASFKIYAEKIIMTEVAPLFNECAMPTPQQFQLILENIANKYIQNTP


Tests used:
ARNO (cytohesin2) = ARNO (cytohesin2) (UniProt Q99418); assay: pull-down; purified GEF (SopE, ARNO or ARNO E156D) bound on silica beads coated with a phospholipid bilayer (PL beads), incubated in porcine brain extract with GTPγS (20 min, RT); beads isolated at 1000 g, washed ten times in HKSM; recruited proteins analysed by SDS-PAGE, mass spectrometry and immunoblotting; only the target purified
[1] = target: T1, Salmonella guanine nucleotide exchange factor (GEF) SopE (Salmonella enterica serovar Typhimurium); assay: as above
HA-tagged Arf1 = HA-tagged Arf1 (UniProt P84077); assay: co-IP; GAT assay: detergent-soluble fraction of HeLa cells expressing Arf1-HA (alone, with ARNO, infected with Salmonella strains, or treated with SecinH3) incubated with 50 μg purified GST-GGA3-GAT 1-313 (1 hr, 4°C); Arf1-HA precipitated with HA-agarose; immunoblot with anti-GST and anti-HA; only the binder purified

Molecule | binding (ARNO (cytohesin2)) | binding [1] | binding (HA-tagged Arf1)
Arf6 (from UniProt Q007T5 1-175) | binds |  | 
Cdc42 (from UniProt Q007T2 1-191) | binds | binds | 
GST-GGA3-GAT^1-313 (domain or fragment, UniProt Q9NZ52 1-313) MAEAEGESLESWLNKATNPSNRQEDWEYIIGFCDQINKELEGPQIAVRLLAHKIQSPQEWEALQALTVLEACMKNCGRRFHNEVGKFRFLNELIKVVSPKYLGDRVSEKVKTKVIELLYSWTMALPEEAKIKDAYHMLKRQGIVQSDPPIPVDRTLIPSPPPRPKNPVFDDEEKSKLLAKLLKSKNPDDLQEANKLIKSMVKEDEARIQKVTKRLHTLEEVNNNVRLLSEMLLHYSQEDSSDGDRELMKELFDQCENKRRTLFKLASETEDNDNSLGDILQASDNLSRVINSYKTIIEGQVINGEVATLTLPD |  |  | binds
